Measurements reported in PMC9168836, “Clamping of DNA shuts the condensin neck gate” (Proceedings of the National Academy of Sciences of the …, 2021).
Results are given in words; binding and its absence hold for the method and conditions named.

T1: Smc4-3xStrepII (budding yeast (S. cerevisiae)), Q12267
T1 chain: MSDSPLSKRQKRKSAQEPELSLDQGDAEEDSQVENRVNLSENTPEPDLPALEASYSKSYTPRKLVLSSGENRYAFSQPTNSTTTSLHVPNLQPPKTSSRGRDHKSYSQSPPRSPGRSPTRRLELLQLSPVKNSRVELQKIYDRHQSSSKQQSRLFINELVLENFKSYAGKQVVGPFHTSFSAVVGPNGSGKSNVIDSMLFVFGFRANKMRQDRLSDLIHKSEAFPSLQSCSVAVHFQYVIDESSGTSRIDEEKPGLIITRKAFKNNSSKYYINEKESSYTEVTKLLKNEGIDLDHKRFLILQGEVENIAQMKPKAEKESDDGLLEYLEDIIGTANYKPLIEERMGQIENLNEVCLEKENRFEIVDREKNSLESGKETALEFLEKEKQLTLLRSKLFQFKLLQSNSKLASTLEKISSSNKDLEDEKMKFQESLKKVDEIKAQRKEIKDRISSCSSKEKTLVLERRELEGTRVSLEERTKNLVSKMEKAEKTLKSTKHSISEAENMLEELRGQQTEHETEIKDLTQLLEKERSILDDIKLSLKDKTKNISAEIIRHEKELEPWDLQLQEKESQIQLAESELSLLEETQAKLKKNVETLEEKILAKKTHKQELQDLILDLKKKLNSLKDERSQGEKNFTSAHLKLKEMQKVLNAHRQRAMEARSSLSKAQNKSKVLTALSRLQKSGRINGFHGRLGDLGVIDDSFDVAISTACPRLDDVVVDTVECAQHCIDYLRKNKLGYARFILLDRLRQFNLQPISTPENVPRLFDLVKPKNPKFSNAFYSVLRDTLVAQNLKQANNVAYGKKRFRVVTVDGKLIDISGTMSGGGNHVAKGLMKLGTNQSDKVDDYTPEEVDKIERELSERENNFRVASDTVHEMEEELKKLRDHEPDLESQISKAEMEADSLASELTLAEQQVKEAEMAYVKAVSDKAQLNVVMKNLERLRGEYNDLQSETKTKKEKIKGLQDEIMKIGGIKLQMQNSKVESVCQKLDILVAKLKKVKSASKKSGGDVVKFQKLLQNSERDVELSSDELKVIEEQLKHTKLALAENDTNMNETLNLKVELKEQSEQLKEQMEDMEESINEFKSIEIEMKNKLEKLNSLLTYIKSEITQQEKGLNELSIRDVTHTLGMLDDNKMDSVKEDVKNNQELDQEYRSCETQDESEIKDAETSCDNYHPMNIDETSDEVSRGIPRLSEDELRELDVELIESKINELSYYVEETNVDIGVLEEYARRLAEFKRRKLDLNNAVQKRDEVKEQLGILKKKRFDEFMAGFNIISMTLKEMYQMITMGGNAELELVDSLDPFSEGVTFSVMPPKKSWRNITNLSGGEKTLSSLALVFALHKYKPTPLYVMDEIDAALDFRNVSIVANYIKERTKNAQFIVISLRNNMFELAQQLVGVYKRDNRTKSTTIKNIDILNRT

T2: Ycs4 (S. cerevisiae, UniProt Q06156 1-1176)
T2 construct: Ycs4, HAWK (HEAT repeat) subunit of S. cerevisiae condensin
T2 sequence: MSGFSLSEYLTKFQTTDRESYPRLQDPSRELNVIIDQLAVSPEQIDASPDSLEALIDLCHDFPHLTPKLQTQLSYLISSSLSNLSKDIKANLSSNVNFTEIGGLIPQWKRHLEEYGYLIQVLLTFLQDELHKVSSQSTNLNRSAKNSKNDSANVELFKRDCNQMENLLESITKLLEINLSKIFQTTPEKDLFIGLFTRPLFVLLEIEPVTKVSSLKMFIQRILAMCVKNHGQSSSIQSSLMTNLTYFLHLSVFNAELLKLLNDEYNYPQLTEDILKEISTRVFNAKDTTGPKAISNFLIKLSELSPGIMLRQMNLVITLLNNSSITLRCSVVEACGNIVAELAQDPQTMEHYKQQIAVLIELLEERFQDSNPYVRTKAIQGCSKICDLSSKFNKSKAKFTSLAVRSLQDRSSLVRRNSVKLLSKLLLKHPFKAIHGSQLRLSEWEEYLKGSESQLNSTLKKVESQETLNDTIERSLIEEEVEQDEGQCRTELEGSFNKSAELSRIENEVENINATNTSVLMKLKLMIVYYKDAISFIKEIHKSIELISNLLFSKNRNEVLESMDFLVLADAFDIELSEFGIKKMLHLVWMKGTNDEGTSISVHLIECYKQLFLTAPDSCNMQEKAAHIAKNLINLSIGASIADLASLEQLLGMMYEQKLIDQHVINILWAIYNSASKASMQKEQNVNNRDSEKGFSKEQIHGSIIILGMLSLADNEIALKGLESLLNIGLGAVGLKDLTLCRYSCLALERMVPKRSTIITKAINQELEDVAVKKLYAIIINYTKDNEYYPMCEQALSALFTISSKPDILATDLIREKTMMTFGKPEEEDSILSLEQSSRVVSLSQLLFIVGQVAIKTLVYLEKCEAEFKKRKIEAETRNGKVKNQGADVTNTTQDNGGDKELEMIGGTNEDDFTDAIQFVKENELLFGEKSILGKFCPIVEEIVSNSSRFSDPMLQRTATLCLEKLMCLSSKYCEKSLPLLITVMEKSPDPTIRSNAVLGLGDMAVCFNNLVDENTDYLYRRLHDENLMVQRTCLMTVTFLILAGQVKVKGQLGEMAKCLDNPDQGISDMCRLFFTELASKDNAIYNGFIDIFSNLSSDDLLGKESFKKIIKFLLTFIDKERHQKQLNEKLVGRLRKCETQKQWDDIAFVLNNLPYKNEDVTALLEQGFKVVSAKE


What was measured:
[1] = target: T1, Smc4-3xStrepII (budding yeast (S. …)); experiment: cryo-EM structure; condensin pentamer (Smc2, Smc4, Brn1, Ycs4, Ycg1) with 80-bp dsDNA, 5 mM ADP, 1 mM BeSO4, 10 mM NaF in TNT buffer pH 7.5; separate maps of the clamped head module and of Ycg1-DNA; both purified; conditions: remark: other sources report otherwise
Ycs4 = target: T2, Ycs4; experiment: as above

Binder | binding [1] | binding (Ycs4)
Ycg1, Q06680 1-1035 (protein) MQDPDGIDINTKIFNSVAEVFQKAQGSYAGHRKHIAVLKKIQSKAVEQGYEDAFNFWFDKLVTKILPLKKNEIIGDRIVKLVAAFIASLERELILAKKQNYKLTNDEEGIFSRFVDQFIRHVLRGVESPDKNVRFRVLQLLAVIMDNIGEIDESLFNLLILSLNKRIYDREPTVRIQAVFCLTKFQDEEQTEHLTELSDNEENFEATRTLVASIQNDPSAEVRRAAMLNLINDNNTRPYILERARDVNIVNRRLVYSRILKSMGRKCFDDIEPHIFDQLIEWGLEDRELSVRNACKRLIAHDWLNALDGDLIELLEKLDVSRSSVCVKAIEALFQSRPDILSKIKFPESIWKDFTVEIAFLFRAIYLYCLDNNITEMLEENFPEASKLSEHLNHYILLRYHHNDISNDSQSHFDYNTLEFIIEQLSIAAERYDYSDEVGRRSMLTVVRNMLALTTLSEPLIKIGIRVMKSLSINEKDFVTMAIEIINDIRDDDIEKQEQEEKIKSKKINRRNETSVDEEDENGTHNDEVNEDEEDDNISSFHSAVENLVQGNGNVSESDIINNLPPEKEASSATIVLCLTRSSYMLELVNTPLTENILIASLMDTLITPAVRNTAPNIRELGVKNLGLCCLLDVKLAIDNMYILGMCVSKGNASLKYIALQVIVDIFSVHGNTVVDGEGKVDSISLHKIFYKVLKNNGLPECQVIAAEGLCKLFLADVFTDDDLFETLVLSYFSPINSSNEALVQAFAFCIPVYCFSHPAHQQRMSRTAADILLRLCVLWDDLQSSVIPEVDREAMLKPNIIFQQLLFWTDPRNLVNQTGSTKKDTVQLTFLIDVLKIYAQIEKKEIKKMIITNINAIFLSSEQDYSTLKELLEYSDDIAENDNLDNVSKNALDKLRNNLNSLIEEINERSETQTKDENNTANDQYSSILGNSFNKSSNDTIEHAADITDGNNTELTKTTVNISAVDNTTEQSNSRKRTRSEAEQIDTSKNLENMSIQDTSTVAKNVSFVLPDEKSDAMSIDEEDKDSESFSEVC | no binding | 
Ycg1 (protein, UniProt Q06680 1-1035) MQDPDGIDINTKIFNSVAEVFQKAQGSYAGHRKHIAVLKKIQSKAVEQGYEDAFNFWFDKLVTKILPLKKNEIIGDRIVKLVAAFIASLERELILAKKQNYKLTNDEEGIFSRFVDQFIRHVLRGVESPDKNVRFRVLQLLAVIMDNIGEIDESLFNLLILSLNKRIYDREPTVRIQAVFCLTKFQDEEQTEHLTELSDNEENFEATRTLVASIQNDPSAEVRRAAMLNLINDNNTRPYILERARDVNIVNRRLVYSRILKSMGRKCFDDIEPHIFDQLIEWGLEDRELSVRNACKRLIAHDWLNALDGDLIELLEKLDVSRSSVCVKAIEALFQSRPDILSKIKFPESIWKDFTVEIAFLFRAIYLYCLDNNITEMLEENFPEASKLSEHLNHYILLRYHHNDISNDSQSHFDYNTLEFIIEQLSIAAERYDYSDEVGRRSMLTVVRNMLALTTLSEPLIKIGIRVMKSLSINEKDFVTMAIEIINDIRDDDIEKQEQEEKIKSKKINRRNETSVDEEDENGTHNDEVNEDEEDDNISSFHSAVENLVQGNGNVSESDIINNLPPEKEASSATIVLCLTRSSYMLELVNTPLTENILIASLMDTLITPAVRNTAPNIRELGVKNLGLCCLLDVKLAIDNMYILGMCVSKGNASLKYIALQVIVDIFSVHGNTVVDGEGKVDSISLHKIFYKVLKNNGLPECQVIAAEGLCKLFLADVFTDDDLFETLVLSYFSPINSSNEALVQAFAFCIPVYCFSHPAHQQRMSRTAADILLRLCVLWDDLQSSVIPEVDREAMLKPNIIFQQLLFWTDPRNLVNQTGSTKKDTVQLTFLIDVLKIYAQIEKKEIKKMIITNINAIFLSSEQDYSTLKELLEYSDDIAENDNLDNVSKNALDKLRNNLNSLIEEINERSETQTKDENNTANDQYSSILGNSFNKSSNDTIEHAADITDGNNTELTKTTVNISAVDNTTEQSNSRKRTRSEAEQIDTSKNLENMSIQDTSTVAKNVSFVLPDEKSDAMSIDEEDKDSESFSEVC |  | no binding
